These are yes or no findings as the source states them, for the method shown. Some results given as binding are weak or reduced against the parent protein; the word gives no strength.
How the values were obtained:
[1] = target: T1, OmpF (E. coli (endogenous in B^E3000)) (UniProt P02931); experiment: native MS; OmpF with the peptides ColN^2-19 and ColN^20-38; conditions not given; both purified
T1 sequence: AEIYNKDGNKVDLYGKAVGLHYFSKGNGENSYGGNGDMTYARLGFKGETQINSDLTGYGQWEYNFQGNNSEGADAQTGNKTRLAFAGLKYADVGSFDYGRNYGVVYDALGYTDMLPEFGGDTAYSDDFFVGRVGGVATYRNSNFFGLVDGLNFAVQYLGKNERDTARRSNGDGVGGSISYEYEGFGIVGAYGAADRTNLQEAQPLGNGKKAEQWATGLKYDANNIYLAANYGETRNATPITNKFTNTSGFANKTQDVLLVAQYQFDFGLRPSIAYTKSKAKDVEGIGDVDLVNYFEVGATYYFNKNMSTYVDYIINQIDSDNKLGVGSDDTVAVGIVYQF

[2] = target: T1, OmpF (E. coli (endogenous in B^E3000)); experiment: native MS; 10 uM OmpF and 10 uM ColN in 100 mM ammonium acetate pH 6.9, 1% beta-OG, trypsin 37 C 2 h, gel filtration, OmpF fractions analysed in 200 mM ammonium acetate, 1% beta-OG; both purified
[3] = target: T1, OmpF (E. coli (endogenous in B^E3000)); experiment: ITC; both purified
[4] = target: T2, OmpC on E. coli cells (E. coli (endogenous in JW0912-1)) (UniProt P06996); experiment: widefield fluorescence microscopy of labelled cells; only the binder purified
T2 sequence: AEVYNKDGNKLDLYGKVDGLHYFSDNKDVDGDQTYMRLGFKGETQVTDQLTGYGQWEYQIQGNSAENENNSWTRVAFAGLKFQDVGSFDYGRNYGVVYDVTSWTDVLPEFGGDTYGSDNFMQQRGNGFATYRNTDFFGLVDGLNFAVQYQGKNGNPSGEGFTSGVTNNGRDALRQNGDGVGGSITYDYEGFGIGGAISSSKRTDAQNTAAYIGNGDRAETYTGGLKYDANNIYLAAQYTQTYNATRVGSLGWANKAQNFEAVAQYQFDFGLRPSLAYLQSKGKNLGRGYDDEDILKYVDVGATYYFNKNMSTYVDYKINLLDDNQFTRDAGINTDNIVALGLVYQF

[5] = target: T3, OmpF on E. coli cells (E. coli (endogenous in JW2203-1, BW25113, BL21(DE3))) (UniProt P02931); experiment: FRAP of labelled cells; only the binder purified
T3 sequence: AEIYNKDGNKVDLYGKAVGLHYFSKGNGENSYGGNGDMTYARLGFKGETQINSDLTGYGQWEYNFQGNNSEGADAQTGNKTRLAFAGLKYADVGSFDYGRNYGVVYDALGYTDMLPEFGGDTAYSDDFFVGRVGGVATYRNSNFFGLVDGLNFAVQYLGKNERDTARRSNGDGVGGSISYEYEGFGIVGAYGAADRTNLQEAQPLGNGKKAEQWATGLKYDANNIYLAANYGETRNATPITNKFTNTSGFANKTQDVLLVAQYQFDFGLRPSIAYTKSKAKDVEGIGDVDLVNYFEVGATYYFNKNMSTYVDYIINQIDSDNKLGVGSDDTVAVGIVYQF

[6] = target: T1, OmpF (E. coli (endogenous in B^E3000)); experiment: immunodiffusion (double diffusion precipitation) assay; 0.5% agarose gel in potassium phosphate buffer pH 6.65, 1% beta-OG; 20 ul of each protein at 17 uM in 3-mm wells, overnight at room temperature; both purified

Molecule: ColN^20-38 peptide (from UniProt P08083 20-38)
- binding [1]: no binding

Molecule: ColN peptide of mass 3,375 Da (residues 2-38) (from UniProt P08083 2-38)
- binding [2]: binds

Molecule: SGGDGRGHNTGAHSTSG (C-terminal amide (CONH2)) [ColE9 OBS1 peptide (residues 2-18)]
- binding [3]: binds

B1: ColN^1-185-mCherry (domain or fragment)
chain: MGSNGADNAHNNAFGGGKNPGIGNTSGAGSNGSASSNRGNSNGWSWSNKPHKNDGFHSDGSYHITFHGDNNSKPKPGGNSGNRGNNGDGASAKVGEITITPDNSKPGRYISSNPEYSLLAKLIDAESIKGTEVYTFHTRKGQYVKVTVPDSNIDKMRVDYVNWKGPKYNNKLVKRFVSQFLLFRK
notes: also called fluorescently labeled ColN
- binding [4]: no binding (tested: 200 nM)
- binding [5]: binds

B2: colicin N (WT ColN) (protein, UniProt P08083 1-387)
chain: MGSNGADNAHNNAFGGGKNPGIGNTSGAGSNGSASSNRGNSNGWSWSNKPHKNDGFHSDGSYHITFHGDNNSKPKPGGNSGNRGNNGDGASAKVGEITITPDNSKPGRYISSNPEYSLLAKLIDAESIKGTEVYTFHTRKGQYVKVTVPDSNIDKMRVDYVNWKGPKYNNKLVKRFVSQFLLFRKEEKEKNEKEALLKASELVSGMGDKLGEYLGVKYKNVAKEVANDIKNFHGRNIRSYNEAMASLNKVLANPKMKVNKSDKDAIVNAWKQVNAKDMANKIGNLGKAFKVADLAIKVEKIREKSIEGYNTGNWGPLLLEVESWIIGGVVAGVAISLFGAVLSFLPISGLAVTALGVIGIMTISYLSSFIDANRVSNINNIISSVIR
- binding [6]: binds

— PMC7335789, “Bifurcated binding of the OmpF receptor underpins import of the bacteriocin colicin N into Escherichia coli” (The Journal of Biological Chemistry, 2020)
